Assay results reported in patent US20110311535A1.
No constants are given. Whether binding was seen depends on the method and setting. Some binding calls cover weakened binding; strength is not graded here. Where a sequence is shown, tags or fusion partners need not be part of it.

What was measured:
[1] = molecular target: T1, recombinant Rae-1e-Fc (R&D Systems) (mouse) (UniProt Q9CZQ6); assay: ELISA, Rae1e/Fc coated
T1 sequence (looked up): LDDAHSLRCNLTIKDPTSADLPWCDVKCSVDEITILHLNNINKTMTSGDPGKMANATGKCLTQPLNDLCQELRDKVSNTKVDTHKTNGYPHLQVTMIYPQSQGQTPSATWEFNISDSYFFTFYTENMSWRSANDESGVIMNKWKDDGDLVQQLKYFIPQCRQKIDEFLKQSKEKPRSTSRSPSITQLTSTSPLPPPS

[2] = molecular target: T1, recombinant Rae-1e-Fc (R&D Systems) (mouse); assay: ELISA, 50 ng Rae-1e-Fc coated, 250 ng NKG2D-Fc, anti-mouse IgG2a-HRP detection

B1: murine NKG2D-Fc fusion protein (IgG2a-IEGR-NKG2D construct) (Fc fusion, mouse, not shown: a dimerising Fc or GST)
chain: IEGRETFQPVLCNKEVPVSSREGYCGPCPNNWICHRNNCYQFFNEEKTWNQSQASCLSQNSSLLKIYSKEEQDFLKLVKSYHWMGLVQIPANGSWQWEDGSSLSYNQLTLVEIPKGSCAVYGSSFKAYTEDCANLNTYICMKRAV
In the case of B1, the binding [1] is reported as “binds” and the binding [2] is reported as “binds”.

B2: NKG2D-IgG2a construct (Fc fusion, UniProt O54709 90-232, looked up, not shown: a dimerising Fc or GST)
chain: FKETFQPVLCNKEVPVSSREGYCGPCPNNWICHRNNCYQFFNEEKTWNQSQASCLSQNSSLLKIYSKEEQDFLKLVKSYHWMGLVQIPANGSWQWEDGSSLSYNQLTLVEIPKGSCAVYGSSFKAYTEDCANLNTYICMKRAV
With B2 the binding [1] was “binds”.

B3: IgG2a-19AA-NKG2D construct (Fc fusion, UniProt O54709 90-232, looked up, not shown: a dimerising Fc or GST; small tags and cut ends)
chain: FKETFQPVLCNKEVPVSSREGYCGPCPNNWICHRNNCYQFFNEEKTWNQSQASCLSQNSSLLKIYSKEEQDFLKLVKSYHWMGLVQIPANGSWQWEDGSSLSYNQLTLVEIPKGSCAVYGSSFKAYTEDCANLNTYICMKRAV
B3 was tested, and the binding [1] was “binds”.
